From the supplement of paper PMC9744312 come the findings set out here.

Each structure is given as a SMILES string. Counter-ions that a name gives are not always drawn. This is one part of the list. The data scatter; read single values as rough.

What is called cell viability is a read-out of living cells in per cent, often relative to untreated cells.

The test system of this experiment is Peyronie's disease tunica albuginea primary fibroblasts. Briefly: cell viability (DRAQ5 nuclear stain) relative to TGF-beta1-only control; higher = more viable cells. Particulars: 10 µM; TGF-beta1 10 ng/mL; 72 h.
For the compound `O=c1cc[nH]c(=O)[nH]1` [Uracil], the cell viability came to 97.6%.
The value for `CCOC(=O)N1c2ccc(C(F)(F)F)cc2[C@@H](N(Cc2cc(C(F)(F)F)cc(C(F)(F)F)c2)C(=O)OC)C[C@H]1CC` [Torcetrapib] was 92.6%; that for `Cc1cccc(-c2nn3c(c2-c2ccnc4ccc(C(N)=O)cc24)CCC3)n1` was 204%.
The value for `CC(C)c1nc(CN(C)C(=O)N[C@@H](CCN2CCOCC2)C(=O)N[C@H](CC[C@H](Cc2ccccc2)NC(=O)OCc2cncs2)Cc2ccccc2)cs1` [Cobicistat (GS-9350)] was 86.1%; that for `CC12CC3CC(C)(C1)CC(N)(C3)C2` [Memantine HCl] was 83.7%; that for `CN1C(C(=O)Nc2ccccn2)=C(O)c2sc(Cl)cc2S1(=O)=O` [Lornoxicam] was 90.9%.
Under `O=C(O)c1cccc(-c2noc(-c3ccccc3F)n2)c1` [Ataluren (PTC124)] stands 91.8%; under `Nc1ccc(S(=O)(=O)Nc2nccs2)cc1` [Sulfathiazole], 87.6%.
With `CC(C)[N+]1(C)[C@@H]2CC[C@H]1C[C@@H](OC(=O)C(CO)c1ccccc1)C2` (stereo partly specified) [Ipratropium Bromide], the cell viability was determined as 96.6%.
As for `Cc1ccc(-c2cc(C(F)(F)F)nn2-c2ccc(S(N)(=O)=O)cc2)cc1` [Celecoxib], the cell viability was 88.4%.
For the compound `CN1CCc2nc(C(=O)N[C@@H]3C[C@@H](C(=O)N(C)C)CC[C@@H]3NC(=O)C(=O)Nc3ccc(Cl)cn3)sc2C1` [Edoxaban], the cell viability was 82.2%.
Under `CN1CCc2nc(C(=O)N[C@@H]3C[C@@H](C(=O)N(C)C)CC[C@@H]3NC(=O)C(=O)Nc3ccc(Cl)cn3)sc2C1` [Edoxaban tosylate Monohydrate] stands 81.4%; under `CC[C@H]1OC(=O)[C@H](C)[C@@H](O[C@H]2C[C@@](C)(OC)[C@@H](O)[C@H](C)O2)[C@H](C)[C@@H](O[C@@H]2O[C@H](C)C[C@H](N(C)C)[C@H]2O)[C@](C)(O)C[C@@H](C)CN(C)[C@H](C)[C@@H](O)[C@]1(C)O` [Azithromycin], 95.7%.
With `CC[C@H]1OC(=O)[C@H](C)[C@@H](O[C@H]2C[C@@](C)(OC)[C@@H](O)[C@H](C)O2)[C@H](C)[C@@H](O[C@@H]2O[C@H](C)C[C@H](N(C)C)[C@H]2O)[C@](C)(O)C[C@@H](C)CN(C)[C@H](C)[C@@H](O)[C@]1(C)O` [Azithromycin Dihydrate], the cell viability was found to be 94.4%.
The value for `CN[C@H]1CC[C@@H](c2ccc(Cl)c(Cl)c2)c2ccccc21` [Sertraline HCl] was 97.8%.
Take `NC[C@H](O)c1ccc(O)c(O)c1` [Noradrenaline bitartrate monohydrate]: the cell viability is 90%.
In the case of `O=C(O)C1=C(CSc2nnnn2CS(=O)(=O)O)CS[C@@H]2[C@H](NC(=O)[C@H](O)c3ccccc3)C(=O)N12` [Cefonicid sodium], the cell viability turned out to be 85.3%.
The value for `C=C[C@]1(C)C[C@@H](OC(=O)CSC(C)(C)CNC(=O)[C@H](N)C(C)C)[C@]2(C)[C@H](C)CC[C@]3(CCC(=O)[C@H]32)[C@@H](C)[C@@H]1O` [Valnemulin HCl] was 75.7%.
The value for `CCc1cc2c(cc1CC)CC(NC[C@H](O)c1ccc(O)c3[nH]c(=O)ccc13)C2` [Indacaterol Maleate] was 86.2%; that for `CCc1cc2c(cc1CC)CC(NC[C@H](O)c1ccc(O)c3[nH]c(=O)ccc13)C2` [Indacaterol] was 101%; that for `CC(=O)Nc1nnc(S(N)(=O)=O)s1` [Acetazolamide] was 76.2%.
For `CC(C)Oc1ccc2c(=O)c(-c3ccccc3)coc2c1` [Ipriflavone (Osteofix)], the cell viability was 93.4%.
Under `Cc1cc(Nc2cc(N3CCN(C)CC3)nc(Sc3ccc(NC(=O)C4CC4)cc3)n2)n[nH]1` [Tozasertib (VX-680, MK-0457)] stands 78.9%.
Under `Clc1ccc2nsnc2c1NC1=NCCN1` [Tizanidine HCl] stands 95.7%; under `Clc1ccc2nsnc2c1NC1=NCCN1` [Tizanidine], 109%.
With `O=C1O[C@H]([C@@H](O)CO)C([O-])=C1O.[Na+]` [Sodium ascorbate], the cell viability is 98.1%.
Consider `CCCCOc1cc(C(=O)OCCN(CC)CC)ccc1N` [Oxybuprocaine HCl], for which the cell viability stood at 86.3%.
As for `N#C/C(=C1/SC[C@@H](c2ccc(Cl)cc2Cl)S1)n1ccnc1` [Luliconazole], the cell viability turned out to be 86.7%.
The value for `NC(=O)C1CCCc2c1[nH]c1ccc(Cl)cc21` (stereo unspecified) [Selisistat (EX 527)] was 40.6%; that for `COC(=O)[C@H](Cc1ccccc1)NC(=O)[C@@H](N)CC(=O)O` [Aspartame] was 90.6%.
The value for `C[C@]12CC[C@@H]3c4ccc(O)cc4C[C@@H](CCCCCCCCC[S+]([O-])CCCC(F)(F)C(F)(F)F)[C@H]3[C@@H]1CC[C@@H]2O` (stereo partly specified) [Fulvestrant] was 85.3%; that for `CNC(=O)[C@@H](NC(=O)[C@H](CC(C)C)[C@H](O)C(=O)NO)C(C)(C)C` [Marimastat (BB-2516)] was 87.9%.
Under `CO/N=C(\C(=O)N[C@@H]1C(=O)N2C(C(=O)O)=C(COC(C)=O)CS[C@H]12)c1csc(N)n1` [Cefotaxime sodium] stands 96.7%; under `CC[C@H](NC(=O)[C@H](C)NC)C(=O)N1C[C@@H](O)C[C@H]1Cc1c(-c2[nH]c3cc(F)ccc3c2C[C@@H]2C[C@H](O)CN2C(=O)[C@H](CC)NC(=O)[C@H](C)NC)[nH]c2cc(F)ccc12` [Birinapant], 125%; under `CN1CCN2c3ncccc3Cc3ccccc3C2C1` (stereo unspecified) [Mirtazapine], 97.3%.
As for `CC(C)[C@H](N)C(=O)OCCOCn1cnc2c(=O)nc(N)[nH]c21` [Valaciclovir HCl], the cell viability was determined as 98.2%.
As for `CC1(C)O[C@@H]2C[C@H]3[C@@H]4C[C@H](F)C5=CC(=O)C=C[C@]5(C)[C@@]4(F)[C@@H](O)C[C@]3(C)[C@]2(C(=O)CO)O1` [Fluocinolone Acetonide], the cell viability was 83.2%.
On to `Cc1cc(C)nc(NS(=O)(=O)c2ccc(N)cc2)n1` [Sulfamethazine Sodium Salt], for which the cell viability worked out at 92%.
The value for `Cc1cc(C)nc(NS(=O)(=O)c2ccc(N)cc2)n1` [Sulfamethazine] was 94.9%.
The value for `CN(C(=O)CN(CCO)CC(=O)N(C)C(C)(C)Cc1ccccc1)C(C)(C)Cc1ccccc1` [Oxethazaine] was 87.4%; that for `CC(C)(Oc1ccc(Cl)cc1)C(=O)OCCOC(=O)c1cccnc1` [Etofibrate] was 96.2%.
